The structures appear in SMILES notation. Counter-ions that a name gives are not always drawn. The full ranking holds about 1,000 compounds; the median of “cFRET/donor change relative to DMSO, normalised to beta-lapachone positive control (supercomplex I-IV assembly)” is about 0.18, and the lowest 2% start at about -1. The list shows a part of the results.

For 77 compounds, cFRET/donor change results are on record in the supplement of paper PMC9877034.

This experiment deals with C2C12 (NDUFB8-AcGFP / COX8A-DsRed-Monomer FRET reporter). Nature of the experiment: cFRET/donor change relative to DMSO, normalised to beta-lapachone positive control (supercomplex I-IV assembly) (fraction of beta-lapachone effect); higher = more respiratory supercomplex assembly. To be noted: 40 µM; 24 h. On the procedure: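 Cells were treated with 40 uM compound for 24 h and imaged on an IN Cell Analyzer 6000. Corrected FRET was divided by donor signal (cFRET/donor) and measured in two replicate experiments. The score is (mean cFRET/donor of compound - mean DMSO) / (mean beta-lapachone 40 uM - mean DMSO). Compounds flagged for prominent cell death, abnormal morphology or decreased cell number were excluded.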
As to `O=C1c2ccccc2C(=O)c2c(NCCc3ccc(O)cc3)ccc(NCCc3ccc(O)cc3)c21`, the cFRET/donor change is -1.29. `NC(=O)c1ncn([C@@H]2O[C@H](CO)[C@@H](O)[C@H]2O)c1O` [Mizoribine] registered a cFRET/donor change of 0.153. The figure for `Nc1ncnc2c1ncn2[C@@H]1O[C@H](COP(=O)(O)CP(=O)(O)OP(=O)(O)O)[C@H](O)C1O` (stereo partly drawn) [alpha,beta-Methylene adenosine 5'-triphosphate dilithium] is 0.245; for `Cc1ccc(C(=O)Nc2ccc(S(=O)(=O)O)c3cc(S(=O)(=O)O)cc(S(=O)(=O)O)c23)cc1NC(=O)c1cccc(NC(=O)Nc2cccc(C(=O)Nc3cc(C(=O)Nc4ccc(S(=O)(=O)O)c5cc(S(=O)(=O)O)cc(S(=O)(=O)O)c45)ccc3C)c2)c1` [Suramin sodium salt] it is -0.0424.

As for `C=CCN1CCc2c(cc(O)c(O)c2Cl)C(c2ccccc2)C1` (racemic) [(±)-Chloro-APB hydrobromide], the cFRET/donor change was 2.52.

The compound `CNCCC=C1c2ccccc2CCc2ccccc21` [Nortriptyline hydrochloride] came in with a cFRET/donor change of 0.236. With `O=c1onc2n1-c1cc(Br)ccc1OC2`, the cFRET/donor change is 0.326. The compound `Cc1ccc(/C(=C\CN2CCCC2)c2ccccn2)cc1` [Triprolidine hydrochloride] displayed a cFRET/donor change of 0.195. For `C[C@]12C=CC(=O)C=C1CC[C@@H]1C2=CC[C@]2(C)[C@@H](C(=O)CN3CCN(c4cc(N5CCCC5)nc(N5CCCC5)n4)CC3)CC[C@@H]12`, the cFRET/donor change was -1.85.

Consider `O=C(O)C1=CCNCC1` [Isoguvacine hydrochloride], for which the cFRET/donor change was -0.33. The figure for `CCn1cc(C(=O)O)c(=O)c2cc(F)c(N3CCNC(C)C3)c(F)c21` (configuration not stated) [Lomefloxacin hydrochloride] is 0.361.

Regarding `NC(=O)c1cc[n+](CC2=C(C(=O)O)N3C(=O)[C@@H](NC(=O)C(c4ccccc4)S(=O)(=O)[O-])[C@H]3SC2)cc1` (some centres not stated) [Cefsulodin sodium salt hydrate], the cFRET/donor change was found to be 0.575. The figure for `CS(=O)(=O)Nc1ccc([N+](=O)[O-])cc1Oc1ccccc1` [Nimesulide] is 0.334. Regarding `O=c1ccc2c(OCCCCc3ccccc3)c3ccoc3cc2o1` [Psora-4], the cFRET/donor change came out at 0.396. `CCCCCCCCCCC(C)(C)C(=O)Nc1c(OC)cc(OC)cc1OC` came in with a cFRET/donor change of 0.904. `Cn1c(=O)c2[nH]c(-c3ccc(S(=O)(=O)O)cc3)nc2n(C)c1=O` [8-(p-Sulfophenyl)theophylline] had a cFRET/donor change of 0.086. `C[C@@H]1O[C@@H]1P(=O)(O)O` [Phosphomycin disodium] returned a cFRET/donor change of -0.0803. The figure for `CCN(CC)CCCC(C)Nc1c2ccc(Cl)cc2nc2ccc(OC)cc12` (configuration not stated) [Quinacrine dihydrochloride] is -4.52. For the compound `CN(CCOc1ccc(NS(C)(=O)=O)cc1)CCc1ccc(NS(C)(=O)=O)cc1` [Dofetilide], the cFRET/donor change came out at 0.532.

Compound `COc1ccc2cccc(CCNC(C)=O)c2c1` [Agomelatine] had a cFRET/donor change of 0.0655.

For `CC1=C(C)C(=O)C(CCCCC#CCCCC#CCO)=C(C)C1=O`, the cFRET/donor change amounted to 0.121. On to `Nc1nc2ccc(Cl)cc2n2c(-c3ccccc3)nnc12`, for which the cFRET/donor change was -1.23. The figure for `CNc1cc(NS(=O)(=O)c2ccc(N)cc2)nc(NC)n1` [Ro 04-6790 dihydrochloride] is -0.245. For `CCOC(=O)[C@H](CCc1ccccc1)N[C@@H](C)C(=O)N1[C@H](C(=O)O)C[C@H]2CCCC[C@@H]21` [Trandolapril], the cFRET/donor change was -0.23.

Consider `CNC[C@H](O)c1cccc(O)c1` [Phenylephrine hydrochloride], for which the cFRET/donor change amounted to 0.454. Compound `CC(=O)NNC(=O)N1Cc2ccccc2Oc2ccc(Cl)cc21` yielded a cFRET/donor change of 0.188. `CC[C@H]1OC(=O)[C@H](C)[C@@H](O[C@H]2C[C@@](C)(OC)[C@@H](O)[C@H](C)O2)[C@H](C)[C@@H](O[C@@H]2O[C@H](C)C[C@H](NC)[C@H]2O)[C@](C)(O)C[C@@H](C)CN(C)[C@H](C)[C@@H](O)[C@]1(C)O` registered a cFRET/donor change of 0.325.

Take `CCCCCCN(CCCCCC)C(=O)Cc1c(-c2ccc(F)cc2)[nH]c2ccccc12` [N,N-Dihexyl-2-(4-fluorophenyl)indole-3-acetamide]: the cFRET/donor change is -0.00542. The same measure for `CCN(CC)CCNC(=O)c1ccc(NC(C)=O)cc1` [N-Acetylprocainamide hydrochloride]: 0.203. Regarding `[Cl-].[Li+]` [Lithium Chloride], the cFRET/donor change was found to be 0.000589. Turning to `O=C(O)CN(CCOCCOCCN(CC(=O)O)CC(=O)O)CC(=O)O`, the cFRET/donor change amounted to 0.309.

As for `CNC(=C[N+](=O)[O-])NCCSCc1ccc(CN(C)C)o1` [Ranitidine hydrochloride], the cFRET/donor change was -0.00968. The figure for `CC(C)C[C@H](NC(=O)[C@@H](O)[C@H](N)Cc1ccccc1)C(=O)O` [Bestatin hydrochloride] is -0.00775. `COC(=O)[C@H]1[C@H]2C[C@@H]3c4[nH]c5cc(OC)ccc5c4CCN3C[C@H]2C[C@@H](OC(=O)c2cc(OC)c(OC)c(OC)c2)[C@@H]1OC` [Reserpine] yielded a cFRET/donor change of -0.411. In turn, `CC(C)Cc1ccc([C@H](C)C(=O)O)cc1` [S(+)-Ibuprofen] yielded a cFRET/donor change of 0.234.

As for `O=c1[nH]cc(F)c(=O)[nH]1` [5-Fluorouracil], the cFRET/donor change is 0.191. The same measure for `N=c1ccn2c(n1)O[C@H]1[C@H](O)[C@@H](CO)O[C@H]12` [Ancitabine hydrochloride]: -0.0397. The figure for `C[N+](C)(C)CCO.[Br-]` [Choline bromide] is 0.313; for `CC(=O)Oc1cc(C(F)(F)F)ccc1C(=O)O` [Triflusal] it is 0.114. The figure for `C[C@@H](c1ncncc1F)[C@](O)(Cn1cncn1)c1ccc(F)cc1F` [Voriconazole] is 0.181; for `O=C(O)Cc1ccccc1Nc1c(Cl)cccc1Cl` [Diclofenac sodium] it is 0.224.

Consider `Cc1cccc(-c2[nH]c(C(C)(C)C)nc2-c2ccc3nccnc3c2)n1`, for which the cFRET/donor change was -0.172.

Compound `COc1ccc(CCN(C)CCc2ccc(OC)c(OC)c2)cc1OC` [YS-035 hydrochloride] registered a cFRET/donor change of 0.59.

`CC[N+](CC)(CC)CC` [Tetraethylammonium chloride] came in with a cFRET/donor change of 0.0424.

`Cc1ccccc1/C=C/C1=NCCN1` [Metrazoline oxalate] displayed a cFRET/donor change of 0.469.

In turn, `Clc1ccc2c(c1)N=C(N1CCNCC1)c1ccccc1N2` [N-Desmethylclozapine] registered a cFRET/donor change of 0.316. In the case of `COc1cc2c(CCNC(C)=O)c[nH]c2cc1O` [6-Hydroxymelatonin], the cFRET/donor change stood at 0.0831. `COc1cc2c(cc1O)CC[C@@H]1[C@@H]2CC[C@]2(C)[C@@H](O)CC[C@@H]12` [2-methoxyestradiol] yielded a cFRET/donor change of 0.518. Compound `CNC(=O)[C@H]1O[C@@H](n2cnc3c(NCc4ccc(N)cc4)ncnc32)[C@H](O)[C@@H]1O` returned a cFRET/donor change of 0.125. In the case of `O=C1NC(=O)/C(=C\c2ccc3nccnc3c2)S1`, the cFRET/donor change is 2.84.

For `O=C(O)CCc1nc(-c2ccccc2)c(-c2ccccc2)o1` [Oxaprozin], the cFRET/donor change was -0.11. The figure for `Clc1ccc2c(c1)C(N1CCNCC1)=Nc1ccccc1O2` [Amoxapine] is 0.34. In turn, `NCCCCC(=O)O` [5-Aminovaleric acid hydrochloride] returned a cFRET/donor change of 0.189.

The compound `CC(C)(Oc1ccc(CCNC(=O)c2ccc(Cl)cc2)cc1)C(=O)O` [Bezafibrate] registered a cFRET/donor change of 0.518. Regarding `CC(C)(C)c1ccc(/C=C/C(=O)Nc2ccc3c(c2)OCCO3)cc1`, the cFRET/donor change was 0.0888.

In the case of `Cc1ccc(N(CC2=NCCN2)c2cccc(O)c2)cc1` [Phentolamine mesylate], the cFRET/donor change was 0.504. The figure for `CC(C)NCC(O)c1ccc(O)c(O)c1` (racemic) [(±)-Isoproterenol hydrochloride] is 0.469; for `C[C@]12CCC(=O)C=C1CC[C@@H]1[C@@H]2C(=O)C[C@@]2(C)[C@H]1CC[C@]2(O)C(=O)CO` [Cortisone] it is 0.00153. In the case of `COCCCC/C(=N\OCCN)c1ccc(C(F)(F)F)cc1` [Fluvoxamine maleate], the cFRET/donor change is 0.216. The same measure for `O=C1/C(=C/c2cccs2)CC/C1=C\c1cccs1`: 0.584; for `O=C(O)C1CCCNC1` (racemic) [(±)-Nipecotic acid]: 0.101; for `CCN(CC)CCNC(=O)c1ccc(NS(C)(=O)=O)cc1` [Sematilide monohydrochloride monohydrate]: 0.066. On to `C[C@H](N[C@@H](CCc1ccccc1)C(=O)O)C(=O)N1CCC[C@H]1C(=O)O` [Enalaprilat dihydrate], for which the cFRET/donor change amounted to 0.121. The figure for `O=C(OCCN1CCOCC1)C1(c2ccccc2)CCCCC1` is 0.722. The compound `COc1ccc(CC(C)NCC(O)c2ccc(O)c(NC=O)c2)cc1` (configuration not stated) [Formoterol] returned a cFRET/donor change of 0.342.

`CCCCCN(C)CCC(O)(P(=O)(O)O)P(=O)(O)O` [Ibandronate sodium]: the cFRET/donor change came out at 0.0449. Take `CN(C)C[C@H](O)Cn1c2ccc(Br)cc2c2cc(Br)ccc21` (racemic) [Wiskostatin]: the cFRET/donor change turned out to be 0.951.

Regarding `c1ccc2c(c1)CCCC2C1=NCCN1` (configuration not stated) [Tetrahydrozoline hydrochloride], the cFRET/donor change stood at 0.174. In the case of `C[C@@H](O)[C@H]1C(=O)N2C(C(=O)O)=C(SCCNC=N)C[C@H]12` [Imipenem monohydrate], the cFRET/donor change was determined as 0.461. The same measure for `N[C@@H](CC(=O)O)C(=O)O` [L-Aspartic acid]: -0.0562; for `C[C@](N)(Cc1ccc(O)cc1)C(=O)O` [L-alpha-Methyl-p-tyrosine]: -0.261; for `CNCCNS(=O)(=O)c1cccc2cnccc12` [H-8 dihydrochloride]: -0.319. With `O=C(O)Cn1c(C(=O)Nc2nc(-c3ccccc3Cl)cs2)cc2ccccc21`, the cFRET/donor change was determined as 0.298.

Take `CCNC(=O)[C@H]1O[C@@H](n2cnc3c(N)nc(NCCc4ccc(CCC(=O)O)cc4)nc32)[C@H](O)[C@@H]1O`: the cFRET/donor change is -0.069. Regarding `C[N+](C)(C)CCOP(=O)(O)OP(=O)([O-])OC[C@H]1O[C@@H](n2ccc(N)nc2=O)[C@H](O)[C@@H]1O` [Cytidine 5'-diphosphocholine sodium salt hydrate], the cFRET/donor change was found to be 0.219.

In turn, `O=C1NC(=O)C(c2ccccc2[N+](=O)[O-])=C1Nc1ccc(O)c(Cl)c1` had a cFRET/donor change of -0.443. `CC1(C)CCC=[N+]1[O-]` [5,5-Dimethyl-1-pyrroline-N-oxide] showed a cFRET/donor change of 0.48.
